Out of some 210,000 compounds screened, about 5,900 (2.8%) were called active. About 5% were inconclusive and are not listed. Calls follow the shape of the dose curve; as a rule, active = well fitted activation curve with a large enough effect; inconclusive = small, poorly fitted or top-dose-only effect; inactive = no such curve, though single readings can be large or run the other way. This is a selection; strong and weak results do not stand in their true shares. Entries without a call were filed so in the source.
Assay: qHTS Assay for Enhancers of SMN2 Splice Variant Expression; also: nearly all actives have a fitted effect of over 55% in size; as to activity change, positive = activation: % of control where 0% means no effect
Conditions: HEK293 SMN2-luciferase splicing reporter, luminescence, 30-36 h; activity change, positive = activation: at 46.1 µM (top of the series) unless noted
Outline: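 HEK293 cells carry an SMN2 […]–luciferase reporter in which exon 7 inclusion puts luciferase in frame. Cells were plated 10-12 h before compound addition, then incubated 30-36 h at 37C. ONE-Glo luminescence was read; sodium butyrate at 4.5 mM final served as control.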
Potency is read from the fitted curve at half-maximal effect.

Question: For CCCCOC(=O)Nc1ccc2c(C)cc(=O)oc2c1, which Potency is on record?
Answer: Its Potency is active: 11.2 µM.

Question: Which activity change, positive = activation does the source give for O=C(NC(=O)c1ccccc1)Nc1ccc(-c2cc(C(F)(F)F)nn2-c2ccccc2)cc1 here?
Answer: The activity change, positive = activation was 21.2%.

Question: Which activity change, positive = activation does the source give for CC(C)C(c1nnnn1C1CCCC1)N(C)C1CCCCC1 (stereo not given) here?
Answer: Its activity change, positive = activation is 38.4%.

Question: With COc1ccc(/C=N/Nc2ncc(C(F)(F)F)cc2Cl)cc1OC as the compound, how does the activity change, positive = activation read?
Answer: The activity change, positive = activation was 34.7%.

Question: With Cc1cc(NCCCn2ccnc2)n2nc(C)c(-c3ccc(Cl)cc3)c2n1 as the compound, how does the activity change, positive = activation read?
Answer: The activity change, positive = activation was -34.3%.

Question: Which activity change, positive = activation does the source give for CCc1c(C)sc(NC(=O)c2ccco2)c1C(=O)N1CCCCC1 here?
Answer: Its activity change, positive = activation is 25.2%.

Question: Which activity change, positive = activation does the source give for Cc1ccc2nsnc2c1N(S(C)(=O)=O)S(C)(=O)=O here?
Answer: The activity change, positive = activation was 32.2%.

Question: Which “activity change, positive = activation” value does the source give for COC(=O)C1SCC2C(=O)N(Cc3ccccc3)CC(=O)N21 (stereo not given) here?
Answer: The value was inactive: 9.38%.

Question: With COc1ccccc1N1CCN(C(=O)c2ccoc2C)CC1 as the compound, how does the activity change, positive = activation read?
Answer: Its activity change, positive = activation is 32.4%.

Question: With COc1cccc(N2CCN(Cc3nc(N)nc(N4CCCc5ccccc54)n3)CC2)c1 as the compound, how does the activity change, positive = activation read?
Answer: The activity change, positive = activation was 32.4%.

Question: With Cc1n[nH]c(C)c1S(=O)(=O)N1CCCC(C(=O)NCc2ccc(F)cc2)C1 (stereo not given) as the compound, how does the activity change, positive = activation read?
Answer: Its activity change, positive = activation is -39.4%.

Question: For C/C(Cl)=C/Cc1c(C)[nH]c2ccc(C)cc2c1=O, which activity change, positive = activation is on record?
Answer: Its activity change, positive = activation is 32.9%.

Question: With CCCc1nnc(SCc2ccc(OC)cc2)n1N as the compound, how does the activity change, positive = activation read?
Answer: Its activity change, positive = activation is 36.6%.

Question: For CC1CCCC(C)N1C(=O)Cn1cc(/C=C2/C(=O)Nc3ccccc32)c2ccccc21 (stereo not given), which “activity change, positive = activation” value is on record?
Answer: Its value is inactive: -15.8%.

Question: Which Potency does the source give for Cc1cc(NC(=O)c2ccccc2)ncc1NC(=O)c1ccco1 here?
Answer: The Potency was active: 8.91 µM.

Question: With COc1ccc(-c2cc(=NC(CC(C)C)C(=O)O)c3cc(C)ccc3o2)cc1 (stereo not given) as the compound, how does the Potency read?
Answer: Its Potency is active: 11.2 µM.

Question: With O=C(COC(=O)c1ccccc1Cc1ccccc1)Nc1ccc(SC(F)F)cc1 as the compound, how does the activity change, positive = activation read?
Answer: The activity change, positive = activation was 57.9%.

Question: Which Potency does the source give for CCOC(=O)c1ccc(NC(=O)N2CCc3ccccc32)cc1 here?
Answer: The Potency was active: 15.8 µM.

Question: For COc1cccc(-c2cc(=O)c3ccc(OC)cc3o2)c1, which Potency is on record?
Answer: The Potency was active: 12.6 µM.

Question: For COc1nc(NCCO)nc(Nc2ccccc2F)n1, which activity change, positive = activation is on record?
Answer: Its activity change, positive = activation is 60.5%.

Question: For O=C(Oc1c(Br)cc(Br)c2cccnc12)N1CCCCC1, which activity change, positive = activation is on record?
Answer: Its activity change, positive = activation is -50.5%.

Question: For Cn1cc(C(=O)Nc2ccc3c(c2)CCC3)cn1, which activity change, positive = activation is on record?
Answer: The activity change, positive = activation was 58.7%.

Question: For O=C(OCC(=O)N1CCN(c2ccccc2)CC1)C1=COCCO1, which activity change, positive = activation is on record?
Answer: Its activity change, positive = activation is 36%.

Question: With COCCn1nnnc1C(c1cc2cc(C)ccc2[nH]c1=O)N1CCN(C2CCCCC2)CC1 (stereo not given) as the compound, how does the activity change, positive = activation read?
Answer: The activity change, positive = activation was 30.1%.

Question: Which “activity change, positive = activation” value does the source give for COc1ccc(S(=O)(=O)c2cnc3ccc(Cl)cc3c2N2CCCCC2C)cc1 (stereo not given) here?
Answer: Its value is inactive: -40.3%.

Question: Which “activity change, positive = activation” value does the source give for Cc1nn(Cc2ccc(Cl)c(Cl)c2)c(C)c1NC(=O)c1noc2c1CCCCC2 here?
Answer: Its value is inactive: -46.5%.

Question: For O=C(N/N=C/c1cn(-c2cccs2)nc1-c1ccccc1)c1ccccc1O, which activity change, positive = activation is on record?
Answer: The activity change, positive = activation was -64.8%.

Question: For Cc1nc(CN(C)C(=O)c2cc(COc3ccc4ncccc4c3)on2)cs1, which “activity change, positive = activation” value is on record?
Answer: The value was inactive: -51%.

Question: For OC(COc1ccc2cc(Br)ccc2c1)CN1CCN(c2ccccn2)CC1 (stereo not given), which activity change, positive = activation is on record?
Answer: Its activity change, positive = activation is -53.1%.

Question: With Cc1ccc(NC(=O)c2ccoc2C)cc1C as the compound, how does the Potency read?
Answer: Its Potency is active: 15.8 µM.

Source: PubChem BioAssay AID1458 (National Center for Advancing Translational Sciences (NCATS), 2008)
